Experimental data: PubChem BioAssay AID1259308 (NCATS, 2017)
The whole screen tested about 59,000 reagents; below is a random part of them. Over the whole deposit, about 1,510 (2.6%) are marked active. 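Calls use total luciferase alone and ignore viability, so some active siRNAs may act by altering cell number.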 A number with no mark means an inactive call. The numbers tell different reagents against one gene apart. Not all columns of the deposit are shown.

Test: 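Knock-downs that increase output of a recombinant reporter protein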 (primary screen)
System: human HEK293 embryonic kidney cells stably expressing firefly luciferase (HEK-CMV-Luc2-Hygro)
Reagents: single siRNA against human genes, 0.8 pmol siRNA per well
Time to read-out: 72 h
Measurement: 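Reporter luminescence and viable-cell signal on separate replicate plates, given as percent of non-targeting control and median/MAD z-scores, plus per-cell luciferase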
Reading the numbers: total luciferase, z-score and total luciferase, % of control: higher = more reporter protein produced
Call rule: 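Active when the median/MAD z-score for overall luciferase is greater than 3; a gene was taken forward for validation with new siRNAs if at least two of its three siRNAs passed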
Meaning of the calls: active = raised luciferase; inactive = no rise

ALDOA (GeneID 226) #1 showed total luciferase, z-score 0.601; total luciferase, % of control 93.8. Depletion of ALDOA (GeneID 226) #2 came out at: total luciferase, z-score 0.3; total luciferase, % of control 87.8. For ALDOA (GeneID 226) #3 the deposit lists total luciferase, z-score -0.629; total luciferase, % of control 69.4. After knock-down of CHCHD6 (GeneID 84303) #1, the record shows total luciferase, z-score 1.54; total luciferase, % of control 113. CHCHD6 (GeneID 84303) #2 showed total luciferase, z-score -0.444; total luciferase, % of control 73. Depletion of CHCHD6 (GeneID 84303) #3 came out at: total luciferase, z-score 1.49; total luciferase, % of control 111.

Depletion of SLC6A2 (GeneID 6530) #1 came out at: total luciferase, z-score 1.28; total luciferase, % of control 107. For SLC6A2 (GeneID 6530) #2 the deposit lists total luciferase, z-score -0.818; total luciferase, % of control 65.6. Knock-down of SLC6A2 (GeneID 6530) #3 resulted in: total luciferase, z-score 1.79; total luciferase, % of control 117. CTBS (GeneID 1486) #1 showed total luciferase, z-score 0.31; total luciferase, % of control 88.1. Knock-down of CTBS (GeneID 1486) #2 gave: total luciferase, z-score -0.447; total luciferase, % of control 73. CTBS (GeneID 1486) #3 showed total luciferase, z-score -0.451; total luciferase, % of control 72.9.

With knock-down of C1QTNF4 (GeneID 114900) #1, the screen gave total luciferase, z-score -1.83; total luciferase, % of control 45.6. Silencing of C1QTNF4 (GeneID 114900) #2 gave: total luciferase, z-score -0.142; total luciferase, % of control 79.1. C1QTNF4 (GeneID 114900) #3 gave total luciferase, z-score 4.51 (active); total luciferase, % of control 172. Knock-down of ALDH16A1 (GeneID 126133) #1 resulted in: total luciferase, z-score 0.88; total luciferase, % of control 99.4. ALDH16A1 (GeneID 126133) #2 scored total luciferase, z-score -0.853; total luciferase, % of control 64.9. Silencing of ALDH16A1 (GeneID 126133) #3 gave: total luciferase, z-score -0.984; total luciferase, % of control 62.3.

With knock-down of PSMB8 (GeneID 5696) #1 the results were total luciferase, z-score 0.608; total luciferase, % of control 94. Against PSMB8 (GeneID 5696) #2 the deposit lists total luciferase, z-score -1.96; total luciferase, % of control 42.8. PSMB8 (GeneID 5696) #3 gave total luciferase, z-score -0.235; total luciferase, % of control 77.2.

3 of these entries, set out differently.
| gene symbol | reagent | total luciferase, z-score | total luciferase, % of control |
| --- | --- | --- | --- |
| ALDH16A1 (GeneID 126133) | 1 | 0.88 | 99.4 |
| ALDH16A1 (GeneID 126133) | 2 | -0.853 | 64.9 |
| ALDH16A1 (GeneID 126133) | 3 | -0.984 | 62.3 |
